Some of these results come from one statement about several compounds together.
Tested on: TDP-43-BiFC cells
Assay: BiFC fluorescence analysis of TDP-43 oligomer formation in TDP-43-BiFC cells (384-well, Operetta)
Type: cell-based, human
Conditions: TDP-43 cell model treated with the inducer
Protocol: In order to develop a TDP-43-BiFC cell line, the TDP-43-VN173 and TDP-43-VC155 constructs shown in FIG. 2 were co-transfected into HEK293 BiFC cells. For establishment of a stable cell line, the transfected cells were selected by culture with growth medium containing 100 μg/mL geneticin (G418; Sigma). In addition, the selected cells were sorted using FACSAria (BD Bioscience) into cells showing fluorescence. The sorted TDP-43-BiFC cells were kept in DMEM medium containing 10% FBS, 100 units/mL penicillin, 100 μg/mL streptomycin and 100 μg/mL G418 in a humidified atmosphere at 37° C. under 5% CO2.
The TDP-43-BiFC cells prepared in Example 1 above were treated with a compound that induces PTMs of protein, a compound that ER stress in cells, amyloid protein, metal ions, or the like, and changes in BiFC fluorescence in the cells were examined. Specifically, for fluorescence analysis, the TDP-43-BiFC cells were grown in a 384-well plate and treated with each of forskolin (30 μM), scriptaid (3 μM), thapsigargin (1 μM), ionomycin (1 μM), MG132 (5 μM), α-synuclein (5 μg/ml), tauK18^P301L (5 μg/ml), Cu^2+ (1 μM) and Zn^2+ (30 μM), followed by culture at 37° C. for 48 hours. Fluorescence images were obtained using Operetta® (PerkinElmer), and the fluorescence intensity in the nucleus and the cytoplasmic fluorescence intensity were analyzed using Harmony3.1 software (PerkinElmer).

Compound | increase of BiFC fluorescence in treated cells compared to untreated group (summary statement) [times]
C/C=C(/C)C(=O)O[C@H]1C(C)=C2[C@H]([C@@H]1OC(=O)CCCCCCC)[C@@](C)(OC(C)=O)C[C@H](OC(=O)CCC)[C@@]1(O)[C@H]2OC(=O)[C@@]1(C)O [thapsigargin] | ≥ 7
C=C[C@@]1(C)CC(=O)[C@]2(O)[C@@]3(C)[C@@H](O)CCC(C)(C)[C@@H]3[C@H](O)[C@H](OC(C)=O)[C@@]2(C)O1 [forskolin] | ≥ 7
O=C(CCCCCN1C(=O)c2cccc3cccc(c23)C1=O)NO [scriptaid] | ≥ 7
